SMILES strings stand for the structures. This is a selection; strong and weak results do not stand in their true shares. Inconclusive results are not listed. Calls of active or inactive are those of the source. How the source made its calls: active means hit-call score of the fitted dose curve at least 0.9, where 1 is the maximum; inconclusive means response in the unintended direction; inactive means score below 0.9.

A short description of this test: CCTE_Mundy_HCI_iCellGABA_NOG_NeuriteLength: CCTE's Neurite Outgrowth Assay in iCellGABA cells for Neurite Length, Mundy Lab. On the procedure:
CCTE_Mundy_HCI_iCellGABA_NOG is a multiplexed, cell-based-readout assay that uses iCell GABANeurons from FUJIFILM Cellular Dynamics, Inc. (FCDI), human GABAergic enriched neurons derived from induced pluripotent stem (iPS) cells, with measurements taken at 50.33 hours after chemical dosing in a microplate: 96-well plate.CCTE_Mundy_HCI_iCellGABA_NOG_NeuriteLength is one of four components of the CCTE_Mundy_HCI_iCellGABA_NOG assay. It measures neurite outgrowth related to neurite length using High Content Imaging of fluorescently labelled markers.Data from the assay component CCTE_Mundy_HCI_iCellGABA_NOG_NeuriteLength was analyzed at the endpoint CCTE_Mundy_HCI_iCellGABA_NOG_NeuriteLength in the positive analysis fitting direction relative to DMSO as the negative control and baseline of activity. Using a type of morphology reporter, loss-of-signal activity can be used to understand developmental effects.
Exposure starts 2 hours post-plating by adding 10 ul of the working solution to 90 ul of media in the wells for a 1/10 dilution. […] A Cellomics ArrayScan VTi HCS Reader is used for automated image acquisition and analysis of neurite outgrowth.
Turning to `CCOP(=S)(OCC)Oc1cc(C)nc(C(C)C)n1`, the AC50 (as a rule, the concentration at which the activity in the assay is half-maximal) is active: 69 µM.

The record behind these values is PubChem BioAssay AID2284382 (EPA ToxCast).
